Measurements: doi:10.1101/2024.10.24.620053

Chains of the proteins cited; added tags and fusions are not shown.
UniProt Q13283: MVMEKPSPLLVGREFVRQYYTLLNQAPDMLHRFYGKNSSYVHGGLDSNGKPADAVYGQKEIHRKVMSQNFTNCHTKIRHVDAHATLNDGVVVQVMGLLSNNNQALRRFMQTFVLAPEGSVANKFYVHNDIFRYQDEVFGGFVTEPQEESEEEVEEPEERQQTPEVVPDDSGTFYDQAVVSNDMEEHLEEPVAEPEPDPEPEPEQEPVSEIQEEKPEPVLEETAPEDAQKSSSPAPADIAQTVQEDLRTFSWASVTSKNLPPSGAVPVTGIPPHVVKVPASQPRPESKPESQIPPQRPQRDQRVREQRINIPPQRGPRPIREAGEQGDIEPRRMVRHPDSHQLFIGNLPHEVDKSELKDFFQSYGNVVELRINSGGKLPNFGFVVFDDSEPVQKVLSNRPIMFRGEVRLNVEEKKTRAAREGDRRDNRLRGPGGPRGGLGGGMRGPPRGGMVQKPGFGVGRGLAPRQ
UniProt Q9UN81: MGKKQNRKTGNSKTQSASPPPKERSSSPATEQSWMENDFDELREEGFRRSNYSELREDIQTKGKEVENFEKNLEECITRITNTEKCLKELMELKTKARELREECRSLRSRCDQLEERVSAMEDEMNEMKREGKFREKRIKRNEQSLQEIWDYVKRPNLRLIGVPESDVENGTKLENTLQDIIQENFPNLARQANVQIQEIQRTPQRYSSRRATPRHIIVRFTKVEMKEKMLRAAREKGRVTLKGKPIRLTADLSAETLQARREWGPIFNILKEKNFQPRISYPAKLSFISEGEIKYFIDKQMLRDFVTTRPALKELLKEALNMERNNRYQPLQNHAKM
UniProt Q99816: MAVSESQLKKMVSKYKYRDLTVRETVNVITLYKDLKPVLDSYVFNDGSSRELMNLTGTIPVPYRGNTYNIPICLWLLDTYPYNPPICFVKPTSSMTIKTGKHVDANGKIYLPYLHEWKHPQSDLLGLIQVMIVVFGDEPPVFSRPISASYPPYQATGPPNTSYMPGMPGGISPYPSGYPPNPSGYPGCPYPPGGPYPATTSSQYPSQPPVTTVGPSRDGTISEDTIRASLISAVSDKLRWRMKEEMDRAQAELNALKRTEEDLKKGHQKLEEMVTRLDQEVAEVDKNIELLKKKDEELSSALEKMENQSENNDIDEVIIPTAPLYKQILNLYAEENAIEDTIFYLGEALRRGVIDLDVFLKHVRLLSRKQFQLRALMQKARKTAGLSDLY
UniProt Q9P2P1: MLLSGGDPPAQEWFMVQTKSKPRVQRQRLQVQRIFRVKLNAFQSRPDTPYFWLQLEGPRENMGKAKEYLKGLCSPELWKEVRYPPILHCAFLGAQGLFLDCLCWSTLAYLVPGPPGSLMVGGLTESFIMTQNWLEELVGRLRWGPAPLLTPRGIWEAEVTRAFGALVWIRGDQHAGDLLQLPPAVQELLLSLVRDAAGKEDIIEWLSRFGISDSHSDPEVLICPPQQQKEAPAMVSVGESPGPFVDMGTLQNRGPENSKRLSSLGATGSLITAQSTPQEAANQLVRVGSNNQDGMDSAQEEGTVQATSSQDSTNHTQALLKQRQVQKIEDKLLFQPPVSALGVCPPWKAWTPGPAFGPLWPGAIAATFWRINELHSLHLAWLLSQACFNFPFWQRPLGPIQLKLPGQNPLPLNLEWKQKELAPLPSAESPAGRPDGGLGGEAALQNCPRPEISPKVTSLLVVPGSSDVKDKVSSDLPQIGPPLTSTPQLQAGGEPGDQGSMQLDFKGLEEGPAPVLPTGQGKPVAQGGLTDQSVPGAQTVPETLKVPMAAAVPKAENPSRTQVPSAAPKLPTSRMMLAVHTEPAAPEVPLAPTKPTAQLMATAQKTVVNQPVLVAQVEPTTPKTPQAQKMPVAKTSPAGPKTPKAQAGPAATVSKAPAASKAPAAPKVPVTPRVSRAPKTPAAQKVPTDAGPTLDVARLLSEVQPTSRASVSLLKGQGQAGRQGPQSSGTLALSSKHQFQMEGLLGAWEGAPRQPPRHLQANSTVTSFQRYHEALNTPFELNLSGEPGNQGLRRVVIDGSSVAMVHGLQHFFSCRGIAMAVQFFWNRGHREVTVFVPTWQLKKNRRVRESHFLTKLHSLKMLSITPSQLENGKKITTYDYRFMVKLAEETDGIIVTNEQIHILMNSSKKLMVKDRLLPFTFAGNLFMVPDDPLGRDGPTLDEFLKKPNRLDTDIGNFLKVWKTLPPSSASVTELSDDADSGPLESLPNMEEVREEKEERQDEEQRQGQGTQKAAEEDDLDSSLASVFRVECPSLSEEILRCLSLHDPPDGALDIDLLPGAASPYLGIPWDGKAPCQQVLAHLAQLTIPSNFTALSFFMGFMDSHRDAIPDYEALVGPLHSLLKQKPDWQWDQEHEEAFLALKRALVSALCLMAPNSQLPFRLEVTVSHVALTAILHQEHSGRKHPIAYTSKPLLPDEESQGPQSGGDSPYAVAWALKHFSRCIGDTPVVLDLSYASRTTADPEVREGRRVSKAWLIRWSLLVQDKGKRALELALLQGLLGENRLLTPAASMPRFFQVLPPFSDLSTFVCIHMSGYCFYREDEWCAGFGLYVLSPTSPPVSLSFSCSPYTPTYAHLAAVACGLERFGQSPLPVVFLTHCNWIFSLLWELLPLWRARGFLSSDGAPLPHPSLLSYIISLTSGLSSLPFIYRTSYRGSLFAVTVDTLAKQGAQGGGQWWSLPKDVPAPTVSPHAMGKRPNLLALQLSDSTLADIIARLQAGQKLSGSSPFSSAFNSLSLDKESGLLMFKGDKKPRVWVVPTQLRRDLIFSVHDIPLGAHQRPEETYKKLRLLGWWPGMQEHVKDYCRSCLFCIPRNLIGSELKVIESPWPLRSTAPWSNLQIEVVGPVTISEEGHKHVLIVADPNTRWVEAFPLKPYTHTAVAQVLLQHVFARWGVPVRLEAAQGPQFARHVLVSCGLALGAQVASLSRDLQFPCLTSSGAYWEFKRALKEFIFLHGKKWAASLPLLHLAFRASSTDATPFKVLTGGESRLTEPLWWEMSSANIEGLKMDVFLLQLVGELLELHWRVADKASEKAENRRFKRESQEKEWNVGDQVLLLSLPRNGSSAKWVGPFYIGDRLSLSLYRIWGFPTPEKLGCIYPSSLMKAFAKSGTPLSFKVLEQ

B1: KHDRBS3 (protein, UniProt O75525 1-346)
chain: MEEKYLPELMAEKDSLDPSFTHALRLVNQEIEKFQKGEGKDEEKYIDVVINKNMKLGQKVLIPVKQFPKFNFVGKLLGPRGNSLKRLQEETLTKMSILGKGSMRDKAKEEELRKSGEAKYFHLNDDLHVLIEVFAPPAEAYARMGHALEEIKKFLIPDYNDEIRQAQLQELTYLNGGSENADVPVVRGKPTLRTRGVPAPAITRGRGGVTARPVGVVVPRGTPTPRGVLSTRGPVSRGRGLLTPRARGVPPTGYRPPPPPPTQETYGEYDYDDGYGTAYDEQSYDSYDNSYSTPAQSGADYYDYGHGLSEETYDSYGQEEWTNSRHKAPSARTAKGVYRDQPYGRY
B2: OAS3 (protein, UniProt Q9Y6K5 1-1087)
chain: MDLYSTPAAALDRFVARRLQPRKEFVEKARRALGALAAALRERGGRLGAAAPRVLKTVKGGSSGRGTALKGGCDSELVIFLDCFKSYVDQRARRAEILSEMRASLESWWQNPVPGLRLTFPEQSVPGALQFRLTSVDLEDWMDVSLVPAFNVLGQAGSGVKPKPQVYSTLLNSGCQGGEHAACFTELRRNFVNIRPAKLKNLILLVKHWYHQVCLQGLWKETLPPVYALELLTIFAWEQGCKKDAFSLAEGLRTVLGLIQQHQHLCVFWTVNYGFEDPAVGQFLQRQLKRPRPVILDPADPTWDLGNGAAWHWDLLAQEAASCYDHPCFLRGMGDPVQSWKGPGLPRAGCSGLGHPIQLDPNQKTPENSKSLNAVYPRAGSKPPSCPAPGPTGAASIVPSVPGMALDLSQIPTKELDRFIQDHLKPSPQFQEQVKKAIDIILRCLHENCVHKASRVSKGGSFGRGTDLRDGCDVELIIFLNCFTDYKDQGPRRAEILDEMRAQLESWWQDQVPSLSLQFPEQNVPEALQFQLVSTALKSWTDVSLLPAFDAVGQLSSGTKPNPQVYSRLLTSGCQEGEHKACFAELRRNFMNIRPVKLKNLILLVKHWYRQVAAQNKGKGPAPASLPPAYALELLTIFAWEQGCRQDCFNMAQGFRTVLGLVQQHQQLCVYWTVNYSTEDPAMRMHLLGQLRKPRPLVLDPADPTWNVGHGSWELLAQEAAALGMQACFLSRDGTSVQPWDVMPALLYQTPAGDLDKFISEFLQPNRQFLAQVNKAVDTICSFLKENCFRNSPIKVIKVVKGGSSAKGTALRGRSDADLVVFLSCFSQFTEQGNKRAEIISEIRAQLEACQQERQFEVKFEVSKWENPRVLSFSLTSQTMLDQSVDFDVLPAFDALGQLVSGSRPSSQVYVDLIHSYSNAGEYSTCFTELQRDFIISRPTKLKSLIRLVKHWYQQCTKISKGRGSLPPQHGLELLTVYAWEQGGKDSQFNMAEGFRTVLELVTQYRQLCIYWTINYNAKDKTVGDFLKQQLQKPRPIILDPADPTGNLGHNARWDLLAKEAAACTSALCCMGRNGIPIQPWPVKAAV
B3: MEX3C (protein, UniProt Q5U5Q3 1-659)
chain: MPSGSSAALALAAAPAPLPQPPPPPPPPPPPLPPPSGGPELEGDGLLLRERLAALGLDDPSPAEPGAPALRAPAAAAQGQARRAAELSPEERAPPGRPGAPEAAELELEEDEEEGEEAELDGDLLEEEELEEAEEEDRSSLLLLSPPAATASQTQQIPGGSLGSVLLPAARFDAREAAAAAAAAGVLYGGDDAQGMMAAMLSHAYGPGGCGAAAAALNGEQAALLRRKSVNTTECVPVPSSEHVAEIVGRQGCKIKALRAKTNTYIKTPVRGEEPIFVVTGRKEDVAMAKREILSAAEHFSMIRASRNKNGPALGGLSCSPNLPGQTTVQVRVPYRVVGLVVGPKGATIKRIQQQTHTYIVTPSRDKEPVFEVTGMPENVDRAREEIEMHIAMRTGNYIELNEENDFHYNGTDVSFEGGTLGSAWLSSNPVPPSRARMISNYRNDSSSSLGSGSTDSYFGSNRLADFSPTSPFSTGNFWFGDTLPSVGSEDLAVDSPAFDSLPTSAQTIWTPFEPVNPLSGFGSDPSGNMKTQRRGSQPSTPRLSPTFPESIEHPLARRVRSDPPSTGNHVGLPIYIPAFSNGTNSYSSSNGGSTSSSPPESRRKHDCVICFENEVIAALVPCGHNLFCMECANKICEKRTPSCPVCQTAVTQAIQIHS
B4: TCAF1 (protein, UniProt Q9Y4C2 1-921)
chain: MATPSAAFEALMNGVTSWDVPEDAVPCELLLIGEASFPVMVNDMGQVLIAASSYGRGRLVVVSHEDYLVEAQLTPFLLNAVGWLCSSPGAPIGVHPSLAPLAKILEGSGVDAKVEPEVKDSLGVYCIDAYNETMTEKLVKFMKCGGGLLIGGQAWDWANQGEDERVLFTFPGNLVTSVAGIYFTDNKGDTSFFKVSKKMPKIPVLVSCEDDLSDDREELLHGISELDISNSDCFPSQLLVHGALAFPLGLDSYHGCVIAAARYGRGRVVVTGHKVLFTVGKLGPFLLNAVRWLDGGRRGKVVVQTELRTLSGLLAVGGIDTSIEPNLTSDASVYCFEPVSEVGVKELQEFVAEGGGLFVGAQAWWWAFKNPGVSPLARFPGNLLLNPFGISITSQSLNPGPFRTPKAGIRTYHFRSTLAEFQVIMGRKRGNVEKGWLAKLGPDGAAFLQIPAEEIPAYMSVHRLLRKLLSRYRLPVATRENPVINDCCRGAMLSLATGLAHSGSDLSLLVPEIEDMYSSPYLRPSESPITVEVNCTNPGTRYCWMSTGLYIPGRQIIEVSLPEAAASADLKIQIGCHTDDLTRASKLFRGPLVINRCCLDKPTKSITCLWGGLLYIIVPQNSKLGSVPVTVKGAVHAPYYKLGETTLEEWKRRIQENPGPWGELATDNIILTVPTANLRTLENPEPLLRLWDEVMQAVARLGAEPFPLRLPQRIVADVQISVGWMHAGYPIMCHLESVQELINEKLIRTKGLWGPVHELGRNQQRQEWEFPPHTTEATCNLWCVYVHETVLGIPRSRANIALWPPVREKRVRIYLSKGPNVKNWNAWTALETYLQLQEAFGWEPFIRLFTEYRNQTNLPTENVDKMNLWVKMFSHQVQKNLAPFFEAWAWPIQKEVATSLAYLPEWKENIMKLYLLTQMPH
B5: ATXN10 (protein, UniProt Q9UBB4 1-475)
chain: MAAPRPPPARLSGVMVPAPIQDLEALRALTALFKEQRNRETAPRTIFQRVLDILKKSSHAVELACRDPSQVENLASSLQLITECFRCLRNACIECSVNQNSIRNLDTIGVAVDLILLFRELRVEQESLLTAFRCGLQFLGNIASRNEDSQSIVWVHAFPELFLSCLNHPDKKIVAYSSMILFTSLNHERMKELEENLNIAIDVIDAYQKHPESEWPFLIITDLFLKSPELVQAMFPKLNNQERVTLLDLMIAKITSDEPLTKDDIPVFLRHAELIASTFVDQCKTVLKLASEEPPDDEEALATIRLLDVLCEMTVNTELLGYLQVFPGLLERVIDLLRVIHVAGKETTNIFSNCGCVRAEGDISNVANGFKSHLIRLIGNLCYKNKDNQDKVNELDGIPLILDNCNISDSNPFLTQWVIYAIRNLTEDNSQNQDLIAKMEEQGLADASLLKKVGFEVEKKGEKLILKSTRDTPKP

Target: G3BP1 (human (endogenous in HeLa)) (UniProt Q13283)
Experiment: affinity purification with mass spectrometry

binding, binds:
L1RE1 (from UniProt Q9UN81 1-338)
TSG101 (from UniProt Q99816 1-390)
NYNRIN (from UniProt Q9P2P1 1-1898)
B1
B2
B3
B4
B5

These are yes or no findings as the source states them, for the method shown. Binding seen in cells or lysates may run through a third protein. Here binding means that the protein was enriched with, or labelled near, the bait; the list need not be complete.
